Measured values reported in patent US20230201365A1 (Bright Peak Therapeutics AG, priority 2021, published 2023).

Legend:
[1] = general procedure: Fmoc solid-phase peptide synthesis; Rink Amide MBHA or Rink Amide ChemMatrix resin pre-loaded with protected alpha-ketoacid; 2-chlorotrityl polystyrene resi; HCTU; HATU; settings: whole synthesis
[2] = general procedure: Fmoc solid-phase peptide synthesis; 2-Chlorotrityl resin pre-loaded with Fmoc-Thr-OH; HCTU; HATU; settings: whole synthesis, analytical HPLC and ESI-HRMS, scale 0.34 mmol

Substance | isolated yield ([1]; peptide synthesis, resin cleavage and purification) [%] | isolated mass ([1]; scale 0.34 mmol) [mg] | isolated yield ([1]; synthesis, cleavage and purification, scale 0.34 mmol) [%] | final HPLC purity [2] [%]
Opr-IL2 (42-69) photoprotected-Leu-α-ketoacid | 16 | – | – | –
Opr-IL2 (105-133) | – | 108.5 | 9 | >98
